Here are results for 1 substance from PMC9769124.

Protein sequences, listed by entry. Tags and fused reporters are not part of them.
UniProt Q9HCE7: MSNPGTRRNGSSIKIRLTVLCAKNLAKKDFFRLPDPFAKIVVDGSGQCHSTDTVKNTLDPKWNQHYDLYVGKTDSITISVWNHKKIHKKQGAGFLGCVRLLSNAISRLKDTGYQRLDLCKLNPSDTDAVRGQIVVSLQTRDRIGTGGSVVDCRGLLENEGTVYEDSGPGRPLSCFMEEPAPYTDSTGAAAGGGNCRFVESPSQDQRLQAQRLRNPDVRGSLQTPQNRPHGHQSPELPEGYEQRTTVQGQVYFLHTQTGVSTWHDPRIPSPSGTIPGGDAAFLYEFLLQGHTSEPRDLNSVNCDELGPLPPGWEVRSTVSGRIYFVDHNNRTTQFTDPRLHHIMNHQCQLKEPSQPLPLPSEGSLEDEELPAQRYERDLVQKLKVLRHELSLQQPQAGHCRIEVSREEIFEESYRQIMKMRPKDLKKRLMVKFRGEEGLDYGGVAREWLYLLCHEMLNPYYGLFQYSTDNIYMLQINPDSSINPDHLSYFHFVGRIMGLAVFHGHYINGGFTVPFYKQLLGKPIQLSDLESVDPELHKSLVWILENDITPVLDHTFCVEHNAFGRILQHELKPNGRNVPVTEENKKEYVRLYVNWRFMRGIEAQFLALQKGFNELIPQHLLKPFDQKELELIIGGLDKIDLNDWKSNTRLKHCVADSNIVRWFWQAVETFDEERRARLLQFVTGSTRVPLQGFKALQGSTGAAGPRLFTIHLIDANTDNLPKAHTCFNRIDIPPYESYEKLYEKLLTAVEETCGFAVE
UniProt Q8WUY9: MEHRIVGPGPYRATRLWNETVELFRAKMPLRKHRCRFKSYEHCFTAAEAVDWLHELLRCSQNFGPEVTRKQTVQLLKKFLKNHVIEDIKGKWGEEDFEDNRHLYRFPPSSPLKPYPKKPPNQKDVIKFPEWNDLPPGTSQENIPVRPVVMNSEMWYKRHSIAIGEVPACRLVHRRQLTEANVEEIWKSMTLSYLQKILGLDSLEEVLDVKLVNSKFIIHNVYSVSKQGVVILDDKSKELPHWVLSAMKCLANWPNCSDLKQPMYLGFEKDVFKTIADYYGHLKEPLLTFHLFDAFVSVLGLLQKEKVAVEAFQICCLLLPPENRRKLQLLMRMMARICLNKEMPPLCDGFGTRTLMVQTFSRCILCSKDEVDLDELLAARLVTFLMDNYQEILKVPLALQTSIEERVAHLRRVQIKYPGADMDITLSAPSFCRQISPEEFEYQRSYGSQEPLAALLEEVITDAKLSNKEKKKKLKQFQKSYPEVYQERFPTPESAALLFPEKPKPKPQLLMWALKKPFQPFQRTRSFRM

No constants are given. Whether binding was seen depends on the method and setting. Binding seen in cells or lysates may run through a third protein. Some binding calls cover weakened binding; strength is not graded here.

This assay concerns the target SMURF1 (human) (UniProt Q9HCE7). Put plainly: co-IP; cell lysate, 1.0-1.2 mg protein; precipitated with IgG (control) or SMURF1 antibody and protein A/G beads; immunoblot. (A western blot detects proteins with antibodies after separation by electrophoresis.)

With “DEP domain-containing protein 1B (from UniProt Q8WUY9 1-529)”, the binding result is on record as “binds”.
